In PMC11843240 one finds binding data, which are given here for 1 molecule.

Chains of the proteins cited; added tags and fusions are not shown.
UniProt O08530: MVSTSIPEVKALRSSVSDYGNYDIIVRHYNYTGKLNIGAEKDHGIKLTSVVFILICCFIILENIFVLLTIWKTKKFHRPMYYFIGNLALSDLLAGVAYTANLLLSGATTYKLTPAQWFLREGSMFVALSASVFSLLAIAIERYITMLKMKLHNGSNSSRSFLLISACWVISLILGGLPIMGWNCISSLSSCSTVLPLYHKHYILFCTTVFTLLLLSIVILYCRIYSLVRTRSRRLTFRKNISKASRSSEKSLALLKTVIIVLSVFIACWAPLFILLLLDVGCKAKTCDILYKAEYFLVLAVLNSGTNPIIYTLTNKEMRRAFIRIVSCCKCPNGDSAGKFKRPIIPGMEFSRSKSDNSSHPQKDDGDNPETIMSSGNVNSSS

No constants are given. Whether binding was seen depends on the method and setting. In cells and extracts the contact can be indirect. Some binding calls cover weakened binding; strength is not graded here.

The target in the experiment is Sphingosine-1-phosphate receptor-1 (mouse (endogenous in SVEC4-10)) (UniProt O08530). Put plainly: co-IP; SVEC4-10 lysate in modified RIPA buffer; anti-S1PR1 (1:100) or normal IgG overnight, Protein A/G beads; immunoblot. In general terms: Immunoblotting shows a protein as a band on a membrane.

B1: lymphatic vessel endothelial hyaluronan receptor 1 (receptor, UniProt Q8BHC0 24-318)
chain: ADLVQDLSISTCRIMGVALVGRNKNPQMNFTEANEACKMLGLTLASRDQVESAQKSGFETCSYGWVGEQFSVIPRIFSNPRCGKNGKGVLIWNAPSSQKFKAYCHNSSDTWVNSCIPEIVTTFYPVLDTQTPATEFSVSSSAYLASSPDSTTPVSATTRAPPLTSMARKTKKICITEVYTEPITMATETEAFVASGAAFKNEAAGFGGVPTALLVLALLFFGAAAVLAVCYVKRYVKAFPFTTKNQQKEMIETKVVKEEKADDVNANEESKKTIKNPEEAKSPPKTTVRCLEAEV
For B1, the binding entry is “binds”.
